Measurements: article PMC10174690

By UniProt entry, the sequences of proteins in these tests, tags left out.
UniProt E9QAP7: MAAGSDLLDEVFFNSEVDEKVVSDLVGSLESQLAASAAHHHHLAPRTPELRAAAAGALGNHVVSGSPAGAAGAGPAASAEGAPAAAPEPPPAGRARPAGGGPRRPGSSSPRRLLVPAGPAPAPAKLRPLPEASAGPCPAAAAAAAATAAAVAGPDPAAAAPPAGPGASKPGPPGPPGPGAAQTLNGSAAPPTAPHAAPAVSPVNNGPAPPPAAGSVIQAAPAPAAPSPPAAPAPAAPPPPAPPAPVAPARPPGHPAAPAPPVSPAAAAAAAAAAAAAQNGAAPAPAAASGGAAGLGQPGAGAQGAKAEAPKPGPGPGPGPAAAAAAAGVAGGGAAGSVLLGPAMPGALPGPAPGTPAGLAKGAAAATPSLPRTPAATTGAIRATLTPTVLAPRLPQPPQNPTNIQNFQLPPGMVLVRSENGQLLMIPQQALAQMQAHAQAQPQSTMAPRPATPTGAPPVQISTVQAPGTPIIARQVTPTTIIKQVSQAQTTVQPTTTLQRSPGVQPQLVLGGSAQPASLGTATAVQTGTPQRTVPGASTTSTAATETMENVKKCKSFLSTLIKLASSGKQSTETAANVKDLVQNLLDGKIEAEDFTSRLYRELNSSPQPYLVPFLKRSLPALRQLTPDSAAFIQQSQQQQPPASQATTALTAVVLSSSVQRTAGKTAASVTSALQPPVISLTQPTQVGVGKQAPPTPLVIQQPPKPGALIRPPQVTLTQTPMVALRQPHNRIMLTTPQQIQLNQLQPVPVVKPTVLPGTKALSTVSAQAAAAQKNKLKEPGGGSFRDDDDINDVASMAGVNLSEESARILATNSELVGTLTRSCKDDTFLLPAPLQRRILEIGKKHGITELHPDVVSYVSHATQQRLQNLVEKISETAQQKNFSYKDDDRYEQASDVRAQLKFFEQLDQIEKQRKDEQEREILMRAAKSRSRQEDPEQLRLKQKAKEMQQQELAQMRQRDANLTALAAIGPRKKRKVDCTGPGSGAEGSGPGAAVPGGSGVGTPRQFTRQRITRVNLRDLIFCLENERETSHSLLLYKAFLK
UniProt Q6NZA9: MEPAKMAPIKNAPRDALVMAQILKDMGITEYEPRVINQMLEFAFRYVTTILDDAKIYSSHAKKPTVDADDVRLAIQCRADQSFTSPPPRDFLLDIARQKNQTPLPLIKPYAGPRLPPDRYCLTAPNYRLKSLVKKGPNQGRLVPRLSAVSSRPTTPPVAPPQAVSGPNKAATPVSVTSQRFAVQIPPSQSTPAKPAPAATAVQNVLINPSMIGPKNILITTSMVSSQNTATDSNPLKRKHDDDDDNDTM

B1: TAF4b (protein, UniProt G5E8Z2 1-850)
chain: MPAGLTEPAGAAAPVVSSASGAVTMAPVAALPVRVEGTPVALGPVTKAPVSVCVESVAPQPLPAPVGTLVTKVVPVTALPKLGSPRLPAPQIVTVKTPGTTTIQLPANLQLPPGTVLIKSNSGQLMLVSPQQAVTGAKTTSNITPRPAVPANTQTVKICTVPNSSSQLMKKVTVAPVKNLTQIGTTVATTASSTSSGQPVALPSSVITVTPAKLVNTVSTLKSSSLGVLSTPSNDARLKAETSVAAQTALPPTVLENVKKCKNFLSMLIKLACSGSQSPEMGQNVKRLVEQLLDAEIEAEEFTRKLYIELKSAPQPHLVPFLKKSVVALRQLLPNSQSFIENCVKEVSGDVVISSCTMTTATSPVVTSTVSPVLVSGATAPRTLSVQQTLNPLAGPGVANTGVVTLHSVAPAAATGGTTAATVLLQTSKPLTTSVPNTVAAVSLQPENPVVSGAAVTLAIPSATFGEASATPLCLPSAKPAITSAGTKADKPAIGTPVQIVTQPSTLLPQAAGIPQTAKVKQLVVQQPSGSSVNHVTSISHSSPLSTQNCGQKTPVNAVMPTSSIIKQITLPGNKLLSLQAQRSSIQSNKIKENGPTCFRGEDDINDVTFMAEVNLDEENACILAAHSDFVGTLIQSCKEEPFLVIGALQKRILDIGKKHDITELNSDAVNLISHATQERLRGLLEKLTTIAQHRMTIYKGSENYILSTDTRSQLKFLEKLDQLEKQRKDLEEREMLLKAAKSRSNKEDPEQLRLKQKAKELQQLELAQIQYRDANLTALAAIGPRKKRPLESGNESFKDNPSTSGTSSLTATKPFRPRITRICLRDLIFCMEQEREMKYSRALYLALLK
B2: mAID-TBP (TATA-box binding protein with the minimal auxin-inducible degron tag at the N-terminus) (protein, UniProt P29037 1-316)
chain: MDQNNSLPPYAQGLASPQGAMTPGIPIFSPMMPYGTGLTPQPIQNTNSLSILEEQQRQQQQQQQQQQQQQAVATAAASVQQSTSQQPTQGASGQTPQLFHSQTLTTAPLPGTTPLYPSPMTPMTPITPATPASESSGIVPQLQNIVSTVNLGCKLDLKTIALRARNAEYNPKRFAAVIMRIREPRTTALIFSSGKMVCTGAKSEEQSRLAARKYARVVQKLGFPAKFLDFKIQNMVGSCDVKFPIRLEGLVLTHQQFSSYEPELFPGLIYRMIKPRIVLLIFVSGKVVLTGAKVRAEIYEAFENIYPILKGFRKTT

Target: TAF4 (mouse (endogenous in C64 mESCs)) (UniProt E9QAP7)
Test: affinity purification with mass spectrometry; α-TAF4 (Santa Cruz sc-136093) crosslinked to Protein G Dynabeads, overnight at 4°C, with whole cell lysates of C64 mESCs (Lysis Buffer: 200 mM NaCl, 25 mM HEPES, 1 mM MgCl2, 0.2 mM EDTA, 0.5% NP-40; pellet digested with MNase and added); six washes; glycine pH 2.5 elution; mouse IgG IP as control; cells treated with DMSO (control) or IAA (TBP depletion); n=4

binding, binds:
TAF9b (from UniProt Q6NZA9 1-249)
B1
B2

No constants are given. Whether binding was seen depends on the method and setting. Binding seen in cells or lysates may run through a third protein. A yes stands for co-enrichment or nearness to the bait. Other partners may have been found. Tags and fused reporters may be left off the sequences shown.
